The other results are listed elsewhere or left out. These are further read-outs of the screen, such as a control signal, another cell line or another target. No call is given for them. The list favours compounds with an active or inconclusive main result. Potencies come from curve fits of mixed quality, noted in brackets.
Assay: qHTS Assay to Find Inhibitors of Chronic Active B-Cell Receptor Signaling
Details: ABC-DLBCL IkBa-CBG/CBR reporter, luminescence ratio (green luciferase fused to IkBa over red control in TMD8 lymphoma cells), 4 h
Method in brief: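 TMD8 ABC-DLBCL cells carrying doxycycline-inducible green luciferase fused to IkappaBalpha plus unfused red luciferase were exposed to compounds (up to 46 uM) for 4 hrs at 37C. Activity came from the overlap-corrected green/red luminescence ratio.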

[1] = measured here: CBR red luminescence, cell number
[2] = measured here: IkBa-CBG green luminescence

| SMILES | AC50 [1] | AC50 [2] |
| --- | --- | --- |
| Cc1sc(NC(=O)c2ccccc2)c(C(c2ccccn2)N2CCN(CCO)CC2)c1C (stereo unspecified) | 1.84 µM [falling, full curve] |  |
| C/C(N)=C(/C#N)C(=O)COC(=O)CCS(=O)(=O)c1ccccc1 | 0.058 µM [falling, full curve, poor fit] |  |
| CCOC(=O)c1c(NC(=O)c2ccoc2C)sc(C)c1C | 16.4 µM [rising, partial curve] |  |
| Cc1ccc(C2=NN3C(C(=O)c4ccccc4)Oc4ccccc4C3C2)cc1 (stereo unspecified) | 14.6 µM [falling, partial curve] |  |
| COc1ccc(C(=O)C2CCCN(Cc3cn(C)nc3-c3ccccc3)C2)cc1F (stereo unspecified) | 20 µM [falling, single point] |  |
| COC(=O)C(NC(=O)CCc1c(C)nc2ncnn2c1C)C(C)C (stereo unspecified) | 17.8 µM [falling, single point] |  |
| O=C(Nc1ccccc1C(=O)O)c1ccc2c(c1)C(=O)N(c1cccc([N+](=O)[O-])c1)C2=O | 3.98 µM [falling, full curve, poor fit] |  |
| S=c1[nH]nc(-c2cc(-c3ccccc3)n[nH]2)n1/N=C/c1c(Cl)cccc1Cl | 5.01 µM [falling, full curve, poor fit] |  |
| COc1ccc(/C=N/NC(=O)c2ccccc2OCc2ccccc2)c(OC)c1 | 1.78 µM [falling, full curve, poor fit] |  |
| CCc1cc(C(=O)N2CCN(c3ccccn3)CC2)sc1C | 3.16 µM [rising, partial curve, poor fit] |  |
| CCCCN1C(=O)/C(=C/C=C2/CC(C)(C)CN2C)SC1=S | 2.91 µM [rising, single point] |  |
| COCCNC(=O)Cc1c(C)c2c(cc(C)c3c(C(C)(C)C)coc32)oc1=O |  | 35.5 µM [falling, single point] |
| CSc1ccc2c(c1)C(N1CCN(C)CC1)Cc1ccccc1S2 (stereo unspecified) | 8.91 µM [falling, partial curve] | 35.5 µM [rising, partial curve, poor fit] |
| Cc1ccc(S(=O)(=O)N2[C@@H](c3ccc(C(C)(C)C)cc3)C(C(=O)O)=CC[C@H]2c2cccc(Cl)c2)cc1 | 29.1 µM [falling, single point] |  |
| Cc1ccc(Nc2cc(C)nc3ccc(C)cc23)cc1 | 6.31 µM [falling, full curve] |  |
| Cn1c(=O)c2c(SCC(=O)N3CCCc4ccccc43)nc(CC(C)(C)C)nc2n(C)c1=O | 2.31 µM [rising, partial curve, poor fit] |  |
| CCOC(=O)C(NC(=O)c1cccnc1)(Nc1cccc(C)n1)C(F)(F)F (stereo unspecified) | 20.6 µM [falling, single point] |  |
| COc1cccc(N2CCN(c3ccc([N+](=O)[O-])cn3)CC2)c1 | 17.8 µM [rising, partial curve, poor fit] |  |
| Cc1c(C(=O)NCc2cccs2)oc2ccc(Br)cc12 | 0.0651 µM [rising, full curve, poor fit] |  |
| O=C(N/N=C(\CC(=O)c1cccs1)C(F)(F)F)c1cccnc1 | 15.8 µM [falling, single point] |  |
| Cc1ccc(NC(=O)CCC(=O)NNS(=O)(=O)c2ccc(Cl)cc2)cc1C | 1.12 µM [falling, full curve, poor fit] |  |

Full records from above.
COCCNC(=O)Cc1c(C)c2c(cc(C)c3c(C(C)(C)C)coc32)oc1=O reads AC50 [2]: 35.5 µM [falling, single point]
COc1cccc(N2CCN(c3ccc([N+](=O)[O-])cn3)CC2)c1 reads AC50 [1]: 17.8 µM [rising, partial curve, poor fit]

Next part:

| SMILES | AC50 [1] | AC50 [2] |
| --- | --- | --- |
| O=C(NCc1nnnn1-c1ccc(F)c(F)c1)c1ccc(S(=O)(=O)N2CCOCC2)cc1 | 32.6 µM [falling, single point] |  |
| Fc1cccc(Cc2noc(CN3CCOCC3)n2)c1 | 22.4 µM [rising, single point] |  |
| Cc1c(C(=O)OC2CCCC2)[nH]c2c1C(=O)CC(c1ccco1)C2 (stereo unspecified) | 7.31 µM [rising, partial curve] |  |
| COc1cc2c(cc1OC)CN(C(=O)CSc1n[nH]c(N)n1)CC2 | 6.51 µM [rising, single point] |  |
| Cc1cccc(NC(=O)CN(C)S(=O)(=O)c2cccs2)c1 | 7.31 µM [falling, single point] |  |
| Cc1cccc(C)c1NC(=O)CNC(=O)C(C)N1CCN(c2cccc(Cl)c2)CC1 (stereo unspecified) | 1.64 µM [rising, full curve, poor fit] |  |
| COc1ccc(OC)c(CN2CCN(C(=O)CCC(=O)c3cccs3)CC2)c1 | 4.11 µM [rising, full curve] |  |
| Cc1ccc(C(=O)CSC2=C(C#N)C(c3ccco3)C3=C(CCCC3=O)N2)cc1 (stereo unspecified) | 7.08 µM [falling, partial curve, poor fit] |  |
| O=C(NC(c1ccc(Cl)cc1)c1c(O)ccc2ccccc12)c1ccccc1 (stereo unspecified) | 29.1 µM [falling, single point] | 20.6 µM [rising, partial curve, poor fit] |
| O=C(NC1CCCC1)c1cccc2c1C(=O)c1ccc(N3CCCCC3)cc1S2(=O)=O | 1.16 µM [falling, full curve] |  |
| COc1ccc(CCn2c(-c3ccccc3)nc3c(c(=O)c4ccccc4n3C)c2=O)cc1 | 25.9 µM [falling, single point] |  |
| Cc1sc2ncn(-c3ccccc3)c(=O)c2c1C | 4.47 µM [rising, full curve, poor fit] |  |
| O=C(Nc1cccc(Cl)c1)c1cnc[nH]1 | 11.2 µM [falling, partial curve, poor fit] |  |
| COc1ccc(CCNC(=O)c2ccc(S(=O)(=O)N(C)c3ccccc3)cc2)cc1OC | 20 µM [rising, single point] |  |
| Cc1cccc(C)c1NC(=O)c1sc(N)nc1-c1ccccc1 | 35.5 µM [rising, single point] |  |
| CCCc1cc(=O)[nH]c(SCCc2ccccc2)n1 | 15.8 µM [falling, single point] |  |
| O=C(Nc1ccccc1)c1ccc(Br)c(S(=O)(=O)N2CCCCC2)c1 |  | 15.8 µM [rising, partial curve, poor fit] |
| Cc1cc(O)c2c(c1O)C(=O)[C@]13C(=C2O)C(=O)[C@@H]2[C@@H](O)[C@H]1[C@@H]1[C@H](O)[C@H]3C(=O)C3=C(O)c4c(O)cc(C)c(O)c4C(=O)[C@]312 | 4.61 µM [falling, full curve] |  |
| COc1ccc(C(=O)N/N=C/c2ccc3cccc(OCc4ccccc4)c3n2)cc1 | 7.08 µM [falling, partial curve] |  |
| COc1ccc(-c2ccc(C#N)c(SCC(=O)Nc3sc4c(c3C#N)CCC4)n2)cc1OC | 11.6 µM [rising, partial curve, poor fit] |  |
| N#C/C(=C/c1ccc([N+](=O)[O-])cc1)C(=O)Nc1ccccc1O | 8.2 µM [falling, partial curve, poor fit] |  |

| SMILES | AC50 [1] | AC50 [2] |
| --- | --- | --- |
| Cc1ccc(-c2c(C)sc3nc[nH]c(=O)c23)cc1C | 0.631 µM [falling, partial curve, poor fit] |  |
| COc1ccccc1/C=C1\SC(=S)N(Nc2nc(C)cc(C)n2)C1=O | 0.891 µM [falling, full curve, poor fit] |  |
| COc1ccccc1-c1nnc(NC(=O)c2ccc(S(=O)(=O)N(C)CC3CCCO3)cc2)o1 (stereo unspecified) | 8.91 µM [falling, partial curve] |  |
| Cc1c(N=C2N=C(NC(=O)c3ccc(F)cc3)c3ccccc32)c(=O)n(-c2ccccc2)n1C | 15.8 µM [rising, partial curve, poor fit] |  |
| Cc1cc(-c2ccccc2)n(-c2ccccc2)n1 | 17.8 µM [rising, single point] |  |
| O=C(/C=C/c1cn(CC(O)CN2CCCCC2)c2ccccc12)c1cccs1 (stereo unspecified) | 29.1 µM [falling, single point] |  |
| Cc1c(C(=S)Nc2ccccc2)cnn1-c1ccc([N+](=O)[O-])cc1 | 4.61 µM [rising, single point] |  |
| CC(=O)Nc1ccc(S(=O)(=O)Nc2nc3cc4c(cc3nc2Cl)OCCO4)cc1 | 11.2 µM [rising, single point] |  |
| Cc1ccc(SC/C(O)=C(\C#N)c2nc3ccccc3s2)cc1 | 2.31 µM [falling, full curve] |  |
| CCOC(=O)c1c(-c2cccs2)csc1NC(=O)CN(CC)CC | 10 µM [rising, partial curve, poor fit] |  |
| CC(=O)Oc1c(/C=C(\C#N)C(N)=O)[nH]c2ccccc12 | 23.1 µM [falling, partial curve] |  |
| COc1cccc(C(=O)/C=C2\Sc3ccccc3N2C)c1 | 25.1 µM [falling, single point] |  |
| Cc1cc(C)nc(N/N=C/C(Cl)=C/c2ccccc2)n1 | 32.6 µM [falling, single point] | 23.1 µM [rising, partial curve, poor fit] |
| O=C(N/N=C/c1ccco1)c1ccccc1OCc1ccc(Br)cc1 | 0.411 µM [rising, partial curve, poor fit] |  |
| O=C(Nc1ccc(-c2nc3cc(Cl)ccc3o2)cc1)C1CCCO1 (stereo unspecified) | 1.64 µM [rising, full curve] |  |
| Cc1noc(C)c1CSc1nc2ccccc2c(=O)n1-c1ccccc1 | 11.2 µM [rising, partial curve] | 7.08 µM [falling, partial curve] |
| O=C1OC2(c3ccccc31)c1cc(I)c(O)c(I)c1Oc1c2cc(I)c(O)c1I | 9.2 µM [rising, partial curve] | 11.6 µM [rising, partial curve, poor fit] |
| CC(=O)Nc1ccc2c(c1)CCCC2=O | 31.6 µM [rising, single point] |  |
| CSC1=NCCN1C(=O)c1ccc(Br)o1 | 13 µM [falling, single point] |  |

Source: PubChem BioAssay AID493014 (National Center for Advancing Translational Sciences (NCATS), 2011)
